Results are given in words; binding and its absence hold for the method and conditions named. A result given as binding can be weak or reduced; the word gives no strength.
Target: T1, Os02g0817500 protein (miR5075 target protein) (rice (Oryza sativa L.)) (UniProt Q40648)
T1 sequence: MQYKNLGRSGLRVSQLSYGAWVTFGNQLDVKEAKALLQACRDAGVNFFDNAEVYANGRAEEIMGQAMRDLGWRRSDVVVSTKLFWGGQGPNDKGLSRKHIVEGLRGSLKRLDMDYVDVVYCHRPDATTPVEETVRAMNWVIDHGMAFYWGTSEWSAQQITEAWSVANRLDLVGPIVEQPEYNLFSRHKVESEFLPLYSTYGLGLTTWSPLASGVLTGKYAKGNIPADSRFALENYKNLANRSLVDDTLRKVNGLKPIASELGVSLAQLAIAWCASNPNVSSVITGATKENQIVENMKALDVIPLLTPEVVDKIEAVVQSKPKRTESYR
Experiment: two-hybrid; Os02g0817500 as bait (pGBKT7, yeast strain Y2H, nuclear system; also pBT3-N, strain NMY51, membrane system); libraries from embryos of artificially aged and germinated 'Kasalath' and 'Nipponbare' seeds; growth on SD/-Leu/-Trp/-His/-Ade/X-alpha-gal and SD/-Leu/-Trp/-His/-Ade/X-gal plates; empty pGADT7 and pPR3-N as negative controls

| binding | Substance |
| --- | --- |
| binds | OsPER1 (rice (Oryza sativa L.)) |
| no binding | protein encoded by Os02g0697300 (miR1848 target gene) (rice (Oryza sativa L.)) |
| binds | protein encoded by Os07g0633100 (rice (Oryza sativa L.)) |
| binds | protein encoded by Os08g0295100 (rice (Oryza sativa L.)) |

Source: paper PMC9158300
